Data taken from PMC7188993.

Target: T1, ZapT-His (ZapT-3xFLAG-6xHis) (Caulobacter crescentus NA1000) (UniProt A0A0H3C832)
T1 sequence (looked up): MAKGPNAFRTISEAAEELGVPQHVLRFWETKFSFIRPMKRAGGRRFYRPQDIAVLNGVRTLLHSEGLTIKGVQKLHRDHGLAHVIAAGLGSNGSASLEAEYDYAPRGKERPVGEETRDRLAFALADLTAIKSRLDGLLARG
Test: EMSA
Conditions: 5 mM Mg acetate, free DNA decreases, no discrete complex band, 50% point comparable for E1-E3, 20 mM HEPES-KOH pH 7.6, 100 mM NaCl, 10% glycerol, 0.01% Triton X-100, 0.1 mg/ml BSA, 10 nM DNA, 10 min on ice, 6% PAGE, GelStar stain, recombinant protein, residues 1-141, protein details: C-terminal 3xFLAG and 6xHis (pET21a01434_3F6H), probe letters rebuilt from the primers and the genome

## CGAGGTGATCATCGTGTCGAATTCCACCCGCCGGGCGCCCGCCTTCAGCGGCCTGACCGTCACCTTGGTGGTTTCCCGGGCGACATAGGCCAGCTCCGGGCCGGAATTGACGATCCAGTCGACCTCGAGCGTCAGGGTCCCGCCACCTTCGGCGTCGCCCAGAAAGCGTTTCTCGCGAACGAAGTACGACAGGTTCTTCATGTACCAGCCGTCGGCGACGGACTTTCCGTTCGCCTGCACCTTCATCCAGGCCCACCAGACGCCCCGGTGATGCGGATGATCGCCCGGCTTGTCCTCGGTCAGCGCGGTTCCGTCCGGCGCATAGAGCGGGCTGACATAGTTG (double strand) [E2]
  binding result: binds

Where a protein sequence is shown, tags need not be part of it.
